Test [1] concerns the target HA–DCNL1 (PONY) (human) (UniProt Q96GG9). The experiment in a line: co-IP; anti-HA immunoprecipitation from lysates of HEK293 cells stably expressing mock, HA-DCNL1, HA-DCNL1 (PONY) or HA-DCNL1-Ub^CT; co-precipitated endogenous proteins by immunoblot.
In test [2] the target is HA–DCNL1 (human) (UniProt Q96GG9). The test is described as above.
Test [3] deals with CUL5 (human (endogenous in HEK293)) (UniProt Q93034). The experiment in a line: co-IP; immunoprecipitation of endogenous CUL5 complexes from HEK293 cells stably expressing GFP-control, GFP-TRIAD1 or catalytically inactive GFP-TRIAD1 (C310S); co-precipitated proteins detected by immunoblot; nonspecific IgG as negative control.

Sequences of proteins named here, by UniProt entry; tags and fusion partners are left off. A change or cut given only in a name is not applied to a line headed by its entry. Residues count along the entry.
UniProt Q96GG9: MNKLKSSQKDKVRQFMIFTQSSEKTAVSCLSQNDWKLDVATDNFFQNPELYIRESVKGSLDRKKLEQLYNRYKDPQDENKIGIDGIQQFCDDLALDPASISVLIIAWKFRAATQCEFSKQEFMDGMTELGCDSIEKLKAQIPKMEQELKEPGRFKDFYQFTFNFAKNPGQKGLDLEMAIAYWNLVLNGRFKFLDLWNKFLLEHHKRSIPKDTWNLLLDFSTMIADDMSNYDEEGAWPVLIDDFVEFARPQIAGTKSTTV
HA–DCNL1 (PONY): residues 59-259 of Q96GG9
UniProt Q93034: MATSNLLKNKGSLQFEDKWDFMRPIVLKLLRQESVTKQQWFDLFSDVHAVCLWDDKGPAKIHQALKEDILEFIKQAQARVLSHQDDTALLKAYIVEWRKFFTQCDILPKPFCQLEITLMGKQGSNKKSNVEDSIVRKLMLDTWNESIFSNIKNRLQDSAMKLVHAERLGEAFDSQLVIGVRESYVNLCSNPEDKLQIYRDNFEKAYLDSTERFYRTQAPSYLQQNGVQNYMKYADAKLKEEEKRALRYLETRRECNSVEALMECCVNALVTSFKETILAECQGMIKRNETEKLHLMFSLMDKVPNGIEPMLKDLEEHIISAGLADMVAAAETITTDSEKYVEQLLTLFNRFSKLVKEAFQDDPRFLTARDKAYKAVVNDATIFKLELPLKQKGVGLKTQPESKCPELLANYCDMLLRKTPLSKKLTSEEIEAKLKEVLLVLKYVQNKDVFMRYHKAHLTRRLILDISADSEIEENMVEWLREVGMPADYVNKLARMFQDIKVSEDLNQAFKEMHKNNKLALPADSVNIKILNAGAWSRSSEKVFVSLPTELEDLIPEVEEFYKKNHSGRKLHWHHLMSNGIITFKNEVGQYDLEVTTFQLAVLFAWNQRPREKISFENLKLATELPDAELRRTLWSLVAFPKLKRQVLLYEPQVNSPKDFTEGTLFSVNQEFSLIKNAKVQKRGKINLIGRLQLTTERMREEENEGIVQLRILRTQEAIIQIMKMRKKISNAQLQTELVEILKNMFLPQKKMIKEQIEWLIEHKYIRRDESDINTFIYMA
UniProt Q13619: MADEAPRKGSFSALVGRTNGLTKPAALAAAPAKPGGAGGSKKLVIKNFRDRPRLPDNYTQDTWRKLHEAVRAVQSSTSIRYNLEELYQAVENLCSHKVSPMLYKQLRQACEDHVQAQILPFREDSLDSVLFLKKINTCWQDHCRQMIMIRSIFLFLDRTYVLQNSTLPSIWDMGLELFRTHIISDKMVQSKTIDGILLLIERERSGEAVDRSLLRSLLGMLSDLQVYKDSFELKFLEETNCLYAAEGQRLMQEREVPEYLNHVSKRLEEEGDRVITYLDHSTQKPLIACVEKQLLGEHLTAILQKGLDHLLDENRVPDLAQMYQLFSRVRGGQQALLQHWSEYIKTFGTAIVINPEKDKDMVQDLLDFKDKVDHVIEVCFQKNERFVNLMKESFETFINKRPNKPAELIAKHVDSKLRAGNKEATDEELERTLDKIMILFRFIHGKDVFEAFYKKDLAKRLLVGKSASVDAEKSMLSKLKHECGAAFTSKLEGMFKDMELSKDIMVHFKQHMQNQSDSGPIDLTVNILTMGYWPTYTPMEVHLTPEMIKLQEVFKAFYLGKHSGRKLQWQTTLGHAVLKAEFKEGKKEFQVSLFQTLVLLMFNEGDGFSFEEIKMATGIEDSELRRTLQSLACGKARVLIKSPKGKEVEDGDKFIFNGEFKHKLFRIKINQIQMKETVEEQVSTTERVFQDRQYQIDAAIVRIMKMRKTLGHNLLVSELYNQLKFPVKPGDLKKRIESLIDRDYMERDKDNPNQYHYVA
UniProt Q13620: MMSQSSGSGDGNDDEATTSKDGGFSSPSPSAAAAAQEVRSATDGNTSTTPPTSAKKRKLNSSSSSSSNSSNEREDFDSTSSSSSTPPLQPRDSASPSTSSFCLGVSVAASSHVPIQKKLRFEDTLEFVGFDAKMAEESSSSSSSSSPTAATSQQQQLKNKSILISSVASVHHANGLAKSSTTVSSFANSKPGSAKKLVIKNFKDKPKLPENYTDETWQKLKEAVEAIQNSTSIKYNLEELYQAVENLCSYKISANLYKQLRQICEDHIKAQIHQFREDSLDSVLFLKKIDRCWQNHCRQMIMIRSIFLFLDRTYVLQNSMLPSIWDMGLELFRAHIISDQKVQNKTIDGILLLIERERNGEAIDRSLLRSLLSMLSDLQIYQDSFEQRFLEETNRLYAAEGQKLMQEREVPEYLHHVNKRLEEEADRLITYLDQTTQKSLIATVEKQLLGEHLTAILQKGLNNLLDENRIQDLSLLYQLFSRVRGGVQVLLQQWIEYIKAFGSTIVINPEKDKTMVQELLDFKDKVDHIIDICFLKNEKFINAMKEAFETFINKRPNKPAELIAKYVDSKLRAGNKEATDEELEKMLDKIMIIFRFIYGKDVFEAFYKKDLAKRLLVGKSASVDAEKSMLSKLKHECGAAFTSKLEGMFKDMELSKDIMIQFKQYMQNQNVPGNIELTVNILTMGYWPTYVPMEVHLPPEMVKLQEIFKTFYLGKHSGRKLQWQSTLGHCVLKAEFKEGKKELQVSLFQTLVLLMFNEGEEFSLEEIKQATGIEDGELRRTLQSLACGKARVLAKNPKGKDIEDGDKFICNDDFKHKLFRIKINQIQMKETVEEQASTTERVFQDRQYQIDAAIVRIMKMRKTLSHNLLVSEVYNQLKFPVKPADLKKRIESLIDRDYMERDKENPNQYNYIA
UniProt Q9UNS2: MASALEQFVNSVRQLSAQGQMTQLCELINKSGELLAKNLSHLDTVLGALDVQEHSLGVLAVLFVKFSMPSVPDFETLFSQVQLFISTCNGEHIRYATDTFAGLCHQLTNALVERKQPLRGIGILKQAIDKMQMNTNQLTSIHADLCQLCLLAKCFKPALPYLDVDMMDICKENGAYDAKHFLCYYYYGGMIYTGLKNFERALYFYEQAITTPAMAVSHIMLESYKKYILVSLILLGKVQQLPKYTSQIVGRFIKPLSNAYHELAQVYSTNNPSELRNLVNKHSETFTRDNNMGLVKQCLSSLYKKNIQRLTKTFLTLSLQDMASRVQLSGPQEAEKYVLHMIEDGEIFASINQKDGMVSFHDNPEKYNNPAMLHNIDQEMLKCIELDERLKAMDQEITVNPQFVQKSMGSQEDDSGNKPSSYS
UniProt Q99627: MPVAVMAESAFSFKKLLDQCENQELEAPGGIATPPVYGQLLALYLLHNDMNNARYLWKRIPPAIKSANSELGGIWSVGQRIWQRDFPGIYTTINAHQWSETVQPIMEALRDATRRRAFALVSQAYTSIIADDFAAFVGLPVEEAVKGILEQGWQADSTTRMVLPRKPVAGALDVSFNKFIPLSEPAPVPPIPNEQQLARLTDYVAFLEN
UniProt Q92905: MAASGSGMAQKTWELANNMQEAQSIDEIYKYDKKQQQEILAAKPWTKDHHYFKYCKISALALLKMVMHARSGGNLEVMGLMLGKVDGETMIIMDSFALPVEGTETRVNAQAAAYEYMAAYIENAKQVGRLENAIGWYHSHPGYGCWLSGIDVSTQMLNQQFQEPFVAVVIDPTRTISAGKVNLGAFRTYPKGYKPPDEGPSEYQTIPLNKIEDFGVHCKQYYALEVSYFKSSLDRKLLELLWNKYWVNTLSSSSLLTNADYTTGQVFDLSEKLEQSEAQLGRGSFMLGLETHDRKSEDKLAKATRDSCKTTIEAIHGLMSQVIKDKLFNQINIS
UniProt Q9H9Q2: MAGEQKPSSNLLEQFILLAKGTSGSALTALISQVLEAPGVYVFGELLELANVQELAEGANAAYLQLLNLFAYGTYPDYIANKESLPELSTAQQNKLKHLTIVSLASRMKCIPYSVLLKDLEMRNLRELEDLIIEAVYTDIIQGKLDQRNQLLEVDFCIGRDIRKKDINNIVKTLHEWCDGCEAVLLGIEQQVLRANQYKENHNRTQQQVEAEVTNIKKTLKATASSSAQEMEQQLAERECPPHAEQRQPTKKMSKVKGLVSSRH

These are yes or no findings as the source states them, for the method shown. Binding seen in cells or lysates may run through a third protein. Some binding calls cover weakened binding; strength is not graded here.

Take CUL4A (from UniProt Q13619 1-759): the binding entry in test [1] and in test [2] was “binds” each time.

With CUL4B (from UniProt Q13620 1-913), the binding result in test [1] and in test [2] was “binds” throughout.

Take CUL5 (from UniProt Q93034 1-780): the binding result in test [1] and in test [2] was “binds” in each case.

Take CSN3 (from UniProt Q9UNS2 1-423): the binding result in test [1] and in test [2] was “binds” each time.

Consider CSN8 (from UniProt Q99627 1-209), for which the binding entry in test [1], in test [2] and in test [3] was “binds” throughout.

Turning to CSN5 (from UniProt Q92905 1-334), in test [3], the binding entry is “binds”.

As for CSN7B (from UniProt Q9H9Q2 1-264), the binding entry in test [1] and in test [2] was “binds” throughout.

“endogenous DCNL1 (from UniProt Q96GG9 1-259)”: in test [3], the binding entry is “binds”.

These data come from article PMC6393609.
